These are yes or no findings as the source states them, for the method shown. Binding seen in cells or lysates may run through a third protein. Some results given as binding are weak or reduced against the parent protein; the word gives no strength.
Target: insulin receptor precursor (INSR) (human (endogenous in T cells)) (UniProt P06213)
Experiment: co-IP; INSR-specific antibody coupled to Dynabeads Protein A/G, added to the lysate of T cells; precipitate read by Western blot; cells with control, lnc-INSR overexpression or mutant lnc-INSR (less MARCH1 and c-CBL with lnc-INSR overexpression, no difference with the mutant)

The chains behind the UniProt entries cited, without tags or fusion partners. Residues count along the entry.
UniProt P06213, residues 28-1382: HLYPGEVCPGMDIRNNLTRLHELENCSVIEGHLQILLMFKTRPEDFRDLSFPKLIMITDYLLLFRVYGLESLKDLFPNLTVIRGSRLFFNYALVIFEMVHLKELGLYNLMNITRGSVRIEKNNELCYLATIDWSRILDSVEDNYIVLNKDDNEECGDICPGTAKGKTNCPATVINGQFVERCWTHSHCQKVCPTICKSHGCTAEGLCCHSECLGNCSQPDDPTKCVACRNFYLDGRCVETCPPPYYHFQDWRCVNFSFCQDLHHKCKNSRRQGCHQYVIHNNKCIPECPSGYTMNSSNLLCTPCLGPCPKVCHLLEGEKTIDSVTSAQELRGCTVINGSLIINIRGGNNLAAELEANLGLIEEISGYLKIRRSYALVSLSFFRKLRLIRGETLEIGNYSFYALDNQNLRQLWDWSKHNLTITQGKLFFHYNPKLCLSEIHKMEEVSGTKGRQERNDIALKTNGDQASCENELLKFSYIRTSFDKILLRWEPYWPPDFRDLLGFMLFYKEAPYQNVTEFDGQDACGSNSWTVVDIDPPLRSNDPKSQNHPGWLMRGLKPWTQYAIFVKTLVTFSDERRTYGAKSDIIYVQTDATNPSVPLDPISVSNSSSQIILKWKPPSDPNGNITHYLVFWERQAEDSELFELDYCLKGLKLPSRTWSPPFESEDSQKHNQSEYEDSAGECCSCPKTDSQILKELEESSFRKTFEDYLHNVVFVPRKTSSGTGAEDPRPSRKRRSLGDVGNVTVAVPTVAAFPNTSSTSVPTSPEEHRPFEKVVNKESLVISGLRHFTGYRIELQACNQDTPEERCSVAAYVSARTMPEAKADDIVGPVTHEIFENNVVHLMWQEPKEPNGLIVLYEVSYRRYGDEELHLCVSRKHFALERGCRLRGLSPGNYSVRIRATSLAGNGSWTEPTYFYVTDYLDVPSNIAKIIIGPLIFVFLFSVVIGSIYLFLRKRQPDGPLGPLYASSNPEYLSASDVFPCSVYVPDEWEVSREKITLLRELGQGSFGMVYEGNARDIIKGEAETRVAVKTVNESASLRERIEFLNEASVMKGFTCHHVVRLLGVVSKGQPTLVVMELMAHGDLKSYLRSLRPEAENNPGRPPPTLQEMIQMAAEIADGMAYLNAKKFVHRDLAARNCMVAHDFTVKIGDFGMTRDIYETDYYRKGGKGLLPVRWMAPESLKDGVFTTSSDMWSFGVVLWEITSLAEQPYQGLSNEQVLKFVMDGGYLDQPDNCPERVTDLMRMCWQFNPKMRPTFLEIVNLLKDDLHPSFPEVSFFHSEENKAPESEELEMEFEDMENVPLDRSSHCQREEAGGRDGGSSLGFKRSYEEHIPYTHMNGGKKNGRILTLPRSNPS

- binding: binds
B1: membrane-associated ring-CH-type finger-1 (MARCH1) (enzyme, UniProt Q8TCQ1 1-289)
chain: MLGWCEAIARNPHRIPNNTRTPEISGDLADASQTSTLNEKSPGRSASRSSNISKASSPTTGTAPRSQSRLSVCPSTQDICRICHCEGDEESPLITPCRCTGTLRFVHQSCLHQWIKSSDTRCCELCKYDFIMETKLKPLRKWEKLQMTTSERRKIFCSVTFHVIAITCVVWSLYVLIDRTAEEIKQGNDNGVLEWPFWTKLVVVAIGFTGGLVFMYVQCKVYVQLWRRLKAYNRVIFVQNCPDTAKKLEKNFSCNVNTDIKDAVVVPVPQTGANSLPSAEGGPPEVVSV

— publication PMC6181910
